From the supplement of paper PMC7666118
Some of the results follow.

By UniProt entry, the sequences of proteins in these tests, tags left out. Where a name states a change or a piece, a line headed by the entry shows the natural chain unless it says otherwise.
UniProt Q9Y5Q9: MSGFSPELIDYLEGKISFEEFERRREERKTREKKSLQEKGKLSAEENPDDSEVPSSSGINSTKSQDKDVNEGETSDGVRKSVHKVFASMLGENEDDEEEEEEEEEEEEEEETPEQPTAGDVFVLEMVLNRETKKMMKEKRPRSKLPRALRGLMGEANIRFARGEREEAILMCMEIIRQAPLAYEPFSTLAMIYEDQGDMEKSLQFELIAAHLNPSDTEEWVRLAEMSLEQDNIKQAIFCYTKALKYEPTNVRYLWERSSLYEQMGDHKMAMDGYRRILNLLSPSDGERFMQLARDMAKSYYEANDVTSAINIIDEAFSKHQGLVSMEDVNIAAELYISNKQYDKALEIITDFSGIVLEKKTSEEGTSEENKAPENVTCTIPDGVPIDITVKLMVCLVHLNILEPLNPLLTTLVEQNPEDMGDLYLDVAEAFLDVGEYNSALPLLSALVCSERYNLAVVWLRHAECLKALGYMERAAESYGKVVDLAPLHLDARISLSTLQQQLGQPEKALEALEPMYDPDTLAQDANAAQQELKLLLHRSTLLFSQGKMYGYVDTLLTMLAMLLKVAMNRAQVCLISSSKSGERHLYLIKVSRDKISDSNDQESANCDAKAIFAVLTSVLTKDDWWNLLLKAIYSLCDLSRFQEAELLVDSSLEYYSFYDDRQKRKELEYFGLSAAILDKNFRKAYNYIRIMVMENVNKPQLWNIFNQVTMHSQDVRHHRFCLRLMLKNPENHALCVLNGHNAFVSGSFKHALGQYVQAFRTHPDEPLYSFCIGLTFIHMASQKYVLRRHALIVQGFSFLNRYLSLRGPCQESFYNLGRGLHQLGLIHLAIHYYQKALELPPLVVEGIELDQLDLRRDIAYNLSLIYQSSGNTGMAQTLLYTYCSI
UniProt Q9UBN7: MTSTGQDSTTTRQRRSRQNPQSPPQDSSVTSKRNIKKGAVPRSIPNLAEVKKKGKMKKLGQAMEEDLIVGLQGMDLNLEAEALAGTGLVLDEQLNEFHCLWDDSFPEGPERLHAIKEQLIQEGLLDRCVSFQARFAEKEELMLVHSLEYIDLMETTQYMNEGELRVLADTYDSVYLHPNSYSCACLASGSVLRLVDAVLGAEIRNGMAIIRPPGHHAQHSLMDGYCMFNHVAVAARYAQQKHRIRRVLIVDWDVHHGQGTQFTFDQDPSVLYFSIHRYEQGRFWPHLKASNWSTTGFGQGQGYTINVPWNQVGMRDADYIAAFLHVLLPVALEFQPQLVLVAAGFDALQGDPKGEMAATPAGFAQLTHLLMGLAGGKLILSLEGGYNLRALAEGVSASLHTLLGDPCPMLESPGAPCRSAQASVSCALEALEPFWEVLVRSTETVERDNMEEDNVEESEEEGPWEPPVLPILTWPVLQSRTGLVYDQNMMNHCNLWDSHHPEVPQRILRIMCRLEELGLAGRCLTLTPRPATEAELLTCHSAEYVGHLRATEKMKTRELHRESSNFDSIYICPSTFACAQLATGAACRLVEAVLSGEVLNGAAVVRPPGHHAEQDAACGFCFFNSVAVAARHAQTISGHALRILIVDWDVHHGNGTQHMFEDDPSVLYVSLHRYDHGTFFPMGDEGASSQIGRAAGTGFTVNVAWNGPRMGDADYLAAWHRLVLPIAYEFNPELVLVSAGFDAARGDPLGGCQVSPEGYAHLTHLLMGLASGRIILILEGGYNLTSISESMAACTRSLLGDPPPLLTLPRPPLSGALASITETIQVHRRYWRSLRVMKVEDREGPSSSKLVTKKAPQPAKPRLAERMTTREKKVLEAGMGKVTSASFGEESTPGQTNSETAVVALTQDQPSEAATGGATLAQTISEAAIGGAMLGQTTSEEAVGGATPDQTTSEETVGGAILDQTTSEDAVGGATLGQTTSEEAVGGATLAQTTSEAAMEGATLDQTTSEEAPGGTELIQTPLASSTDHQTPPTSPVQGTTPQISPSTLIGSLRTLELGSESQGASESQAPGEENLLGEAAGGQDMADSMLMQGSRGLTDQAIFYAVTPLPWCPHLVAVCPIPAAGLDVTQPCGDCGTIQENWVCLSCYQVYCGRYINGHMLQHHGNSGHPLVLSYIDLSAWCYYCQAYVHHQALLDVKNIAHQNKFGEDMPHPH
UniProt Q9UBQ7: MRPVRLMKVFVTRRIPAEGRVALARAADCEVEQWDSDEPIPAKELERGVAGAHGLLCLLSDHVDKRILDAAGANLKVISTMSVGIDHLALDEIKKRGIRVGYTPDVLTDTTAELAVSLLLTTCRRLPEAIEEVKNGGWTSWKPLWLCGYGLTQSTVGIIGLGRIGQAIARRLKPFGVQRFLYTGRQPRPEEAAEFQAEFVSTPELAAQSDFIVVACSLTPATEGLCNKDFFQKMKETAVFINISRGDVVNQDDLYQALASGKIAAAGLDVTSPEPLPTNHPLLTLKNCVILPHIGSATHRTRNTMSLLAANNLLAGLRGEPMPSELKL
UniProt Q96EK6: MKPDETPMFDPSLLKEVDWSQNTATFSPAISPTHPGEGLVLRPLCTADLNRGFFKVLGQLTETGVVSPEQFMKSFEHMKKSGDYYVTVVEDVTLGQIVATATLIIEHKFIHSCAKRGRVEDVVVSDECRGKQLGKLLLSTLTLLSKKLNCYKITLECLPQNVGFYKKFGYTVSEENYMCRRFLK
UniProt Q0VDF9: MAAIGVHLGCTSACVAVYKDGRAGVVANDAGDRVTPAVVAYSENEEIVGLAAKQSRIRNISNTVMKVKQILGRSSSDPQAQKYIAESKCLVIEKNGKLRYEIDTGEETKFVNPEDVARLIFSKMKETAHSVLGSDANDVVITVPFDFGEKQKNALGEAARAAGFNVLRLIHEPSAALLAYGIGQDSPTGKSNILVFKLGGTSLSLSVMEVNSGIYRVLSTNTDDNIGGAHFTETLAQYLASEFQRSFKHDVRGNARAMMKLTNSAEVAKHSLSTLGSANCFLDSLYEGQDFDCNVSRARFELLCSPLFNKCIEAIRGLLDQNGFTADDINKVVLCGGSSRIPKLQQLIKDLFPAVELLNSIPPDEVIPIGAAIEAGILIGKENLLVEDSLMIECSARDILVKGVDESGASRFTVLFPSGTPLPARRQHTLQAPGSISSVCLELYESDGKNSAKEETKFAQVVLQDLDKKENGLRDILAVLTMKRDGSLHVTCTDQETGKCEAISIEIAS
UniProt Q9HAB3: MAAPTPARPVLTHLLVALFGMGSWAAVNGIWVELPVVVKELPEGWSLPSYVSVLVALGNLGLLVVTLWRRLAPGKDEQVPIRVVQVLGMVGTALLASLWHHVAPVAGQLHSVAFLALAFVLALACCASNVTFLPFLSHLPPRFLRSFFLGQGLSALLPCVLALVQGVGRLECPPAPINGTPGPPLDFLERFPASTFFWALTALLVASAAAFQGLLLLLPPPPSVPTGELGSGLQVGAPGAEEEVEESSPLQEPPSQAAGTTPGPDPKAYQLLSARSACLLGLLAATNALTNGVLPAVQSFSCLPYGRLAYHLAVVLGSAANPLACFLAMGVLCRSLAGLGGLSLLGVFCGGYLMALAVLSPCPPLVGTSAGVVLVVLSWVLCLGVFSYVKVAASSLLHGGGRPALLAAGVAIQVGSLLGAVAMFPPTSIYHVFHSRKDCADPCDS
UniProt P35269, whole entry: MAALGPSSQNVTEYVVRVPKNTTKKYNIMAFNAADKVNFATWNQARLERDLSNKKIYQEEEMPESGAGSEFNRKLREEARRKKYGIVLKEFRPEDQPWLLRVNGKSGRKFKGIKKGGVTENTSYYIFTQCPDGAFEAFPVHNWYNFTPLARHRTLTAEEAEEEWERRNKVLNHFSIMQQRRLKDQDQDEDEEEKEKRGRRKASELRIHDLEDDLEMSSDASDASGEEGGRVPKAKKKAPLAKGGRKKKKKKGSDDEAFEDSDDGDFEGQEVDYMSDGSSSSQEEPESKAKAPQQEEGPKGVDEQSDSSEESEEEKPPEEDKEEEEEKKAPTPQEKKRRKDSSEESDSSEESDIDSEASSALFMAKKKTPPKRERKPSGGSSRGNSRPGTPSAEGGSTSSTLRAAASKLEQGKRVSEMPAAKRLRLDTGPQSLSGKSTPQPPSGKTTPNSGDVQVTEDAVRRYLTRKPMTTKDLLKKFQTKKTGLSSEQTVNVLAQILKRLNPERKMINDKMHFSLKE
UniProt P48637: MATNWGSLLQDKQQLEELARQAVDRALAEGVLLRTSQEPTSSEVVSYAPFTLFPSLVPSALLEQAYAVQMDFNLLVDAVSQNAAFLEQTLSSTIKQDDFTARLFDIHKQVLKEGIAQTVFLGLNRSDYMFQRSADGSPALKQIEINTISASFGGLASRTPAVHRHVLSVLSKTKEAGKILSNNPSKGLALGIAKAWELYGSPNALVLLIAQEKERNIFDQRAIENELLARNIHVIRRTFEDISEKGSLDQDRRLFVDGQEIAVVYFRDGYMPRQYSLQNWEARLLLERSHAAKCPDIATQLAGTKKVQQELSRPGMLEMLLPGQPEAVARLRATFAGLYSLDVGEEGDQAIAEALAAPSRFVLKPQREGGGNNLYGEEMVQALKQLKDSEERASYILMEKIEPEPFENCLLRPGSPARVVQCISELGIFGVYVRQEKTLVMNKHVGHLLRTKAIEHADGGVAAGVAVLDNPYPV
UniProt Q96EW2: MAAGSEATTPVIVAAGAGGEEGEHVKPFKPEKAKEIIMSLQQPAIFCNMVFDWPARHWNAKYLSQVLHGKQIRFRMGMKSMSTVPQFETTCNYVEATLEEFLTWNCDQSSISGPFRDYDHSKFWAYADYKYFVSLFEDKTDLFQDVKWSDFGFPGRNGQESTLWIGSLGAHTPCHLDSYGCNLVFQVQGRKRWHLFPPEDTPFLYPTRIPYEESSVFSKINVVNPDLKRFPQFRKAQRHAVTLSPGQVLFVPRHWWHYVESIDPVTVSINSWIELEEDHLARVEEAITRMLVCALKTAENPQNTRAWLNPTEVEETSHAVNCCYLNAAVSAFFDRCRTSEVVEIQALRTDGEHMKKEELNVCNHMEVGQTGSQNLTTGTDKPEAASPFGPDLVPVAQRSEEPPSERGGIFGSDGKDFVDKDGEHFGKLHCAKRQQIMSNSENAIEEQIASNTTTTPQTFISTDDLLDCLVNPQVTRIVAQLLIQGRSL
UniProt P51858: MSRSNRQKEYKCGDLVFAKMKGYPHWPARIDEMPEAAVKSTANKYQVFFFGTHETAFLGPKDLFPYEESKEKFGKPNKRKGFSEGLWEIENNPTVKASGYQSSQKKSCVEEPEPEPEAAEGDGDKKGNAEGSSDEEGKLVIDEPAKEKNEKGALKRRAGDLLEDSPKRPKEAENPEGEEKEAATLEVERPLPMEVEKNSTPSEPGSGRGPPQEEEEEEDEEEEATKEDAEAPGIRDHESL
UniProt P00505: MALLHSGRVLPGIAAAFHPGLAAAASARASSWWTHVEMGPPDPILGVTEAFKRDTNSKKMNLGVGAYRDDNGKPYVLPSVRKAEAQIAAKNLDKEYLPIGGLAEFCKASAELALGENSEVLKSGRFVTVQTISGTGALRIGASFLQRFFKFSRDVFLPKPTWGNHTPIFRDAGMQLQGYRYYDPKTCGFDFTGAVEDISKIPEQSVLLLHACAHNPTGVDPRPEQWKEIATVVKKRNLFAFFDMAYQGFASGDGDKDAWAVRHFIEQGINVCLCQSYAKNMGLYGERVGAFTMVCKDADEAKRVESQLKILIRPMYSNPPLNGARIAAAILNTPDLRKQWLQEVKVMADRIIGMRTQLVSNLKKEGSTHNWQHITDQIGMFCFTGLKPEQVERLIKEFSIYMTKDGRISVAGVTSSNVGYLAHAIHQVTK
UniProt P31937: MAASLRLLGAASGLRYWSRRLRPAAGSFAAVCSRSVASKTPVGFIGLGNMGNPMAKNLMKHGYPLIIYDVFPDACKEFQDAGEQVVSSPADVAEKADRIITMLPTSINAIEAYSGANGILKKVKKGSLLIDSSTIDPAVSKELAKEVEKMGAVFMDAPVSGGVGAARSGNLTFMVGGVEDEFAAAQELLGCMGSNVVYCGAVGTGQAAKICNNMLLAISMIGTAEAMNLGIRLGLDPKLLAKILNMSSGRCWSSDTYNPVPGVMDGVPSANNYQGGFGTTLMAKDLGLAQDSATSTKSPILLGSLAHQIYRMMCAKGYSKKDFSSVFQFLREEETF
UniProt P46926: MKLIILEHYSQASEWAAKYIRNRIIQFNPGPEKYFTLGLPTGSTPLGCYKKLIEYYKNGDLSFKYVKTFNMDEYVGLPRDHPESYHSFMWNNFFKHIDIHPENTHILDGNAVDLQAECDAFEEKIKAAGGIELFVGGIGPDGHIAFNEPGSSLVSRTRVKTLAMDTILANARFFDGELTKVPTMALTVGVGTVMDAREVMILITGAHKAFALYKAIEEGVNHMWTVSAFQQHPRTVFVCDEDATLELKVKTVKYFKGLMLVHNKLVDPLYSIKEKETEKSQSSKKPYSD

The targets below were run with COc1ccc(Cn2ccc3cc(C)c(C(=O)NO)cc32)cc1 (assay: dose-dependent thermal stabilisation call (2D-TPP, DLPTP, 10% FDR) (binary (1 = stabilised)); higher = stabilised by the compound). Settings: system: HL-60 intact cells; concentration range 0.04-10 µM.
Method: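 2D thermal proteome profiling in intact HL-60 cells treated with BRD-3811 (0, 0.04, 0.29, 2, 10 uM) for 90 min at 37 C, then heated 3 min at one of 12 temperatures (42-63.9 C). Soluble protein was quantified by TMT10 MS. The value is the DLPTP call of the paper: dose-dependent thermal stabilisation over all temperatures at 10% FDR (F-test of a dose-response against a flat model); one experiment, one call per tested protein.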

Row | Target | dose-dependent thermal stabilisation call
1 | GTF3C3 (UniProt Q9Y5Q9) | inactive: 0
2 | GPN3 (UniProt Q9UHW5) | inactive: 0
3 | GTF3C1 (UniProt Q12789) | inactive: 0
4 | HOMER3 (UniProt Q9NSC5) | inactive: 0
5 | HNRNPF (UniProt P52597) | inactive: 0
6 | HACL1 (UniProt Q9UJ83) | inactive: 0
7 | HDAC6 (UniProt Q9UBN7) | inactive: 0
8 | GPHN (UniProt Q9NQX3) | inactive: 0
9 | GRHPR (UniProt Q9UBQ7) | inactive: 0
10 | GNPNAT1 (UniProt Q96EK6) | inactive: 0
11 | HSPA14 (UniProt Q0VDF9) | inactive: 0
12 | GPR172A (UniProt Q9HAB3) | inactive: 0
13 | GTF2F1 (UniProt P35269) | inactive: 0
14 | GSS (UniProt P48637) | inactive: 0
15 | HSPBAP1 (UniProt Q96EW2) | inactive: 0
16 | HDGF (UniProt P51858) | inactive: 0
17 | GPAA1 (UniProt O43292) | inactive: 0
18 | GOT2 (UniProt P00505) | inactive: 0
19 | HIBADH (UniProt P31937) | inactive: 0
20 | HEXB (UniProt P07686) | inactive: 0
21 | GNPDA1 (UniProt P46926) | inactive: 0
22 | HPS1 (UniProt Q92902) | inactive: 0
23 | GRAMD1A (UniProt Q96CP6) | inactive: 0
24 | GPN2 (UniProt Q9H9Y4) | inactive: 0
25 | HAGH (UniProt Q16775) | inactive: 0
26 | HNRNPUL1 (UniProt Q9BUJ2) | inactive: 0
27 | HNRNPK (UniProt P61978) | inactive: 0

Random excerpt: two entries already listed.
Row | Target | dose-dependent thermal stabilisation call
26 | HNRNPUL1 (UniProt Q9BUJ2) | inactive: 0
14 | GSS (UniProt P48637) | inactive: 0
